Among the data in article PMC7864074, “Functions of Gle1 are governed by two distinct modes of self-association” (The Journal of Biological Chemistry, 2020) are binding values, retold here.

In test [1] the target is Gle1^(152–360 L248D L251D L258D L262D L315D M318D L322D L325D) (human) (UniProt Q53GS7). In words: native gel or EMSA; 4–15% acrylamide gradient native PAGE, 150 V for 90 min, Coomassie staining; both purified.
For test [2], the target named is Gle1^(1–360 Δ45–54 8D) (human) (UniProt Q53GS7). The experiment in a line: SEC; S200 size-exclusion chromatography; 20 mM HEPES, pH 7.5, 200 mM NaCl, 0.5 mM TCEP, 10% glycerol; MBP as a size reference; both purified. (Size exclusion chromatography separates by hydrodynamic size, large species first.)

These are yes or no findings as the source states them, for the method shown.

B1: Gle1^(152–360 L248D L251D L258D L262D L315D M318D L322D L325D) (domain or fragment, UniProt Q53GS7 152-360)
chain: EEQERKVQALSEMASEQLKRFDEWKELKQHKEFQDLREVMEKSSREALGHQEKLKAEHRHRAKILNLKLREAEQQRVKQAEQERLRKEEGQIRLRADYADQEEMLQDSQQDDASEQHKALLKVDLAAFQTRGNQLCSLISGIIRASSESSYPTAESQAEAERADREDRDLDMNDGQEITRACEDKRRQDEEEAQVKLQEAQMQQGPEAH
With B1, in test [1], the binding result is “no binding”.

B2: Gle1^(1–360 Δ45–54 8D) (domain or fragment, UniProt Q53GS7)
chain: MPSEGRCWETLKALRSSDKGRLCYYRDWLLRREDVLEECMSLPKHVLPHMQENQPLSETSPSSTSASALDQPSFVPKSPDASSAFSPASPATPNGTKGKDESQHTESMVLQSSRGIKVEGCVRMYELVHRMKGTEGLRLWQEEQERKVQALSEMASEQLKRFDEWKELKQHKEFQDLREVMEKSSREALGHQEKLKAEHRHRAKILNLKLREAEQQRVKQAEQERLRKEEGQIRLRADYADQEEMLQDSQQDDASEQHKALLKVDLAAFQTRGNQLCSLISGIIRASSESSYPTAESQAEAERADREDRDLDMNDGQEITRACEDKRRQDEEEAQVKLQEAQMQQGPEAH
B2: the binding entry in test [2] is on record as “no binding”.
